According to PubChem BioAssay AID1487 (National Center for Advancing Translational Sciences (NCATS), 2009):
Values joined by “and” are separate entries in the source; they are usually repeats but may differ in a detail not shown here. Identical values can stand only once. Some of the results follow. Further columns of the screen follow, without active or inactive calls. The list favours compounds with an active or inconclusive main result. Words in brackets tell the shape of the fitted curve; partial curves, single points and poor fits give uncertain potencies.

Assay: qHTS Assay for Modulators of Lamin A Splicing
Settings: HeLa LMNA splicing GFP/RFP minigene ratio, 48 h
Method in brief: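 Read-out is the ratio of GFP to DsRed2 object intensity, acquired by 488 nm laser-scanning cytometry on HeLa lamin A-EGFP minigene reporter cells. Compound incubation 48 hrs at 37 °C in Opti-MEM with 2% FBS; DMSO 0.5% final.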

[1] = measured here: GFP splicing reporter channel
[2] = measured here: RFP viability control channel

For `O=C(C1CC1)N1CCN(S(=O)(=O)c2ccc3c(c2)OCCO3)CC1`, the AC50 [1] was 35.5 µM [falling, partial curve] and the AC50 [2] was 22.4 µM [falling, partial curve, poor fit].
With `COc1ccc(NC(=O)OCCN2CCN(Cc3ccccc3)CCC2=O)cc1` the AC50 [2] was 3.98 µM [rising, single point].
For `O=C(C1CCCCC1)N1CC(=O)N2CCc3ccccc3[C@@H]2C1`, the AC50 [2] was 0.2 µM [falling, single point].
For `CCOc1cc(/C=C/C(=O)c2ccc(O)cc2)ccc1OCC(=O)N(C)C`, the AC50 [2] was 11.2 µM [rising, partial curve, poor fit].
In the case of `Oc1ccc(Cn2cc[nH]c2=S)cc1`, the AC50 [2] was 0.000794 µM [falling, full curve, poor fit].
For `Cc1cc(C(=O)C(C)OC(=O)C2=NNC(=O)CC2)c(C)n1-c1ccc(OC(F)F)cc1` (stereo unspecified), the AC50 [2] was 25.1 µM [rising, single point].
For `Cc1c(NC(=O)Cc2ccccc2)cccc1C(=O)NN1C(=O)c2ccccc2C1=O`, the AC50 [2] was 0.0562 µM [rising, full curve, poor fit].
In the case of `O=C(Nc1ccn(Cc2cccc3ccccc23)n1)c1cccnc1`, the AC50 [2] was 7.08 µM [rising, full curve, poor fit].
For `O=C(CN1CCC(n2nnc3cc(F)ccc32)CC1)N1CCc2ccccc2C1`, the AC50 [1] was 28.2 µM [rising, single point] and the AC50 [2] was 12.6 µM [rising, partial curve, poor fit].
For `COc1cc(NC(=O)CCn2c(-c3ccccc3)cc(C(C)=O)c2C)cc(OC)c1`, the AC50 [1] was 0.708 µM [rising, full curve, poor fit].
With `COc1ccccc1N1CCN(C(=O)c2oc3cc(C)c(C)cc3c2C)CC1` the AC50 [2] was 12.6 µM [rising, single point].
With `COc1cccc(/C=N/Nc2cc(C)nc(-c3ccccc3O)n2)c1O` the AC50 [1] was 3.16 µM [falling, partial curve, poor fit] and the AC50 [2] was 3.16 µM [falling, partial curve].
In the case of `Cc1cc(C(=O)COC(=O)C2CC2)c(C)n1-c1ccc(F)cc1`, the AC50 [1] was 3.16 µM [rising, full curve, poor fit].
In the case of `CC(C)C(NC(=O)C1CCCCC1)C(=O)Nc1ccc2c(c1)OCCO2` (stereo unspecified), the AC50 [1] was 3.98 µM [rising, partial curve, poor fit].
For `Cc1nn(S(=O)(=O)N2CCOCC2)c(C)c1Br`, the AC50 [2] was 3.16 µM [falling, partial curve, poor fit].
In the case of `CCN(c1cccc(C)c1)S(=O)(=O)c1ccc2c3c(cccc13)C(=O)N2`, the AC50 [2] was 6.31 µM [rising, partial curve, poor fit].
For `O=C(COc1ccccc1)NCc1ccc2c(c1)CCN2C(=O)c1ccc(F)cc1`, the AC50 [2] was 1.12 µM [rising, partial curve, poor fit].
For `Oc1cc(-n2cccn2)c(O)cc1-n1cccn1`, the AC50 [1] was 7.94 µM [falling, single point] and the AC50 [2] was 14.1 µM [falling, single point].
With `Cc1c2ccccc2nc2c(F)c(N(C)C)c(F)c(F)c12` the AC50 [1] was 17.8 µM [falling, partial curve] and the AC50 [2] was 12.6 µM [falling, single point].
With `CCOC(=O)c1cnc(-c2ccccc2)nc1N(C)C` the AC50 [1] was 3.55 µM [falling, partial curve].
For `Cc1ccc(NC(=O)c2cc(S(=O)(=O)NCCC3=CCCCC3)ccc2F)cc1F`, the AC50 [1] was 35.5 µM [falling, single point] and 35.5 µM [falling, partial curve] and the AC50 [2] was 3.16 µM [falling, single point] and 8.91 µM [falling, partial curve, poor fit].
With `N#Cc1ccc(Oc2nc(C#N)cc(-c3ccccc3)n2)cc1` the AC50 [2] was 11.2 µM [rising, partial curve].
In the case of `Cc1cc(C)c(COCc2cc(/C=N/O)c(C)cc2C)cc1/C=N/O`, the AC50 [1] was 12.6 µM [rising, single point] and the AC50 [2] was 14.1 µM [rising, single point].
With `Cc1ccc(N2CCN(c3ccc(C)cc3)C2c2ccncc2)cc1` the AC50 [2] was 31.6 µM [rising, single point].
With `COC(=O)c1ccccc1NC(=O)CN1CCC(C(=O)c2ccc3c(c2)OCCO3)CC1` the AC50 [1] was 12.6 µM [rising, single point].
With `Cc1nn(-c2ccccc2)c2sc(-c3nnc(SCC(=O)O)o3)cc12` the AC50 [1] was 35.5 µM [falling, single point] and the AC50 [2] was 35.5 µM [falling, single point].
With `Cc1cc(Nc2nc3ccccc3nc2Cl)n(-c2ccccc2C)n1` the AC50 [1] was 22.4 µM [rising, single point] and the AC50 [2] was 25.1 µM [rising, single point].
In the case of `Cc1ccc(Cl)cc1N1CCN(C(=O)C2CCN(S(=O)(=O)c3c(C)nn(C)c3C)CC2)CC1`, the AC50 [2] was 20 µM [rising, single point].
For `CC(C)(C)C(=O)Nc1ccccc1C(=O)NCc1ccco1`, the AC50 [2] was 12.6 µM [rising, single point].
With `O=C(CCN1CCN(C(c2ccccc2)c2ccccc2)CC1)N/N=C/c1ccc(O)cc1O` the AC50 [2] was 35.5 µM [rising, single point].
With `Cc1cc(F)ccc1NC(=O)CCS(=O)(=O)c1ccc2c(c1)NC(=O)CO2` the AC50 [1] was 1.26 µM [rising, partial curve].
In the case of `COC(=O)c1cn(NC(=O)c2ccc([N+](=O)[O-])cc2Cl)c(=O)c2ccccc12`, the AC50 [1] was 0.447 µM [falling, full curve, poor fit].
In the case of `COc1ccc(COc2ccccc2C(=O)NCc2ccccc2)cc1F`, the AC50 [2] was 28.2 µM [rising, single point].
In the case of `CN1CCN(c2ccnc(-c3ccoc3)n2)CC1`, the AC50 [1] was 12.6 µM [falling, single point].
In the case of `COc1cc(NS(=O)(=O)c2ccc(C)cc2)ccc1-n1cnnn1`, the AC50 [1] was 14.1 µM [rising, partial curve] and the AC50 [2] was 11.2 µM [rising, single point].
In the case of `COc1cccc(CNC(=O)C2CCCN(S(=O)(=O)c3ccc4c(ccn4C)c3)C2)c1` (stereo unspecified), the AC50 [1] was 0.0891 µM [falling, full curve, poor fit].
For `COCCOC(=O)C1=C(N)OC2=C(C(=O)CCC2)C1c1cccnc1` (stereo unspecified), the AC50 [1] was 0.02 µM [rising, full curve, poor fit].
In the case of `O=C(Nc1ccc(F)cc1)c1ccc(COc2ccccc2)cc1`, the AC50 [2] was 0.0631 µM [rising, full curve].
For `C=C1c2c(Cl)ccc(O)c2C(O)=C2C(=O)[C@@]3(O)C(O)=C(C(N)=O)C(=O)[C@@H](N(C)C)[C@@H]3[C@@H](O)[C@H]12`, the AC50 [2] was 0.00447 µM [rising, full curve, poor fit].
With `Nc1ccn([C@@H]2O[C@H](CO)[C@@H](O)C2O)c(=O)n1` (stereo partly specified) the AC50 [1] was 0.891 µM [falling, full curve, poor fit].
With `Cc1cc(C)c(NC(=S)NC(=O)c2c(Cl)c(C)nn2C)c([N+](=O)[O-])c1` the AC50 [1] was 25.1 µM [rising, single point] and the AC50 [2] was 31.6 µM [rising, single point].
For `Cc1noc(C)c1CSc1nnc2ccccn12`, the AC50 [2] was 35.5 µM [rising, single point].
In the case of `COc1ccc(N2CCN(C(c3cc4cc(C)ccc4[nH]c3=O)c3nnnn3Cc3ccccc3)CC2)cc1` (stereo unspecified), the AC50 [1] was 12.6 µM [rising, partial curve, poor fit].
In the case of `O=c1cnc2cnc(Nc3ccccc3)nc2n1Cc1ccc(F)cc1`, the AC50 [2] was 20 µM [falling, partial curve, poor fit].
For `Cc1ccc2nc(NC(=S)NC(=O)c3ccc(OC(C)C)cc3)sc2c1`, the AC50 [2] was 35.5 µM [falling, single point].
For `COc1ccc(N2CCN(C(=O)CCc3ccc(S(=O)(=O)NC(C)C)cc3)CC2)cc1`, the AC50 [1] was 22.4 µM [rising, single point] and the AC50 [2] was 22.4 µM [rising, single point].
In the case of `COC(=O)c1sccc1NC(=O)CN1CCN(c2ccc(F)cc2)CC1`, the AC50 [2] was 17.8 µM [rising, partial curve].
For `CCOC(=O)C1=C(C)N(CCO)C(=O)NC1c1ccccc1` (stereo unspecified), the AC50 [1] was 0.0112 µM [rising, full curve, poor fit] and the AC50 [2] was 0.00891 µM [rising, full curve].
For `CCOC(=O)Cc1cc(=O)n2[nH]cc(-c3ccc(Cl)cc3)c2n1`, the AC50 [2] was 0.00447 µM [rising, full curve, poor fit].
In the case of `CCCNC(=O)c1nn2cc(Br)cnc2c1Cl`, the AC50 [1] was 1.41 µM [rising, full curve, poor fit].
With `N#C/C(=C\c1ccc(-c2cccc([N+](=O)[O-])c2)o1)C(=O)NCCN1CCOCC1` the AC50 [1] was 20 µM [falling, partial curve, poor fit].
For `CCOC(=O)C1CCCN(c2ncnc3c2cnn3-c2ccc(C)c(Cl)c2)C1` (stereo unspecified), the AC50 [1] was 35.5 µM [falling, partial curve, poor fit].
For `Nc1sc(-c2ccccc2)c(Cc2ccccc2)c1C(=O)O`, the AC50 [2] was 0.447 µM [rising, single point].
With `O=C(CCCCCn1c(SCC(=O)c2ccccc2)nc2ccccc2c1=O)NCc1ccco1` the AC50 [2] was 14.1 µM [rising, single point].
For `O=C(O)/C=C\c1ccccc1Oc1cccc(Cl)c1`, the AC50 [1] was 14.1 µM [falling, single point] and the AC50 [2] was 11.2 µM [falling, partial curve, poor fit].
With `Clc1ccc(CCNc2ncnc3c2c(-c2ccccc2)cn3-c2ccccc2)cc1` the AC50 [1] was 0.794 µM [falling, full curve, poor fit] and the AC50 [2] was 0.0631 µM [falling, full curve, poor fit].
